Earlier results in patent US20250213497A1, “A NANO IN MICRO FORMULATION AND PROCESS THEREOF” (AMRITA VISHWA VIDYAPEETHAM, priority 2022, published 2025).
Counter-ions that a name gives are not always drawn. The name of at least one read-out is uncertain.

Conditions: unformulated sorafenib tosylate

Structure (SMILES): CNC(=O)c1cc(Oc2ccc(NC(=O)Nc3ccc(Cl)c(C(F)(F)F)c3)cc2)ccn1 [Sorafenib tosylate]
- relative oral bioavailability: ~38%
